From the supplement of paper PMC12819154, “High-throughput peptide-centric local stability assay extends protein–ligand identification to membrane proteins, tissues and bacteria” (Nature Structural & Molecular Biology, 2025) come the findings set out here.

The chains behind the UniProt entries cited, without tags or fusion partners. Where a name states a change or a piece, a line headed by the entry shows the natural chain unless it says otherwise.
UniProt Q9Y6Y8: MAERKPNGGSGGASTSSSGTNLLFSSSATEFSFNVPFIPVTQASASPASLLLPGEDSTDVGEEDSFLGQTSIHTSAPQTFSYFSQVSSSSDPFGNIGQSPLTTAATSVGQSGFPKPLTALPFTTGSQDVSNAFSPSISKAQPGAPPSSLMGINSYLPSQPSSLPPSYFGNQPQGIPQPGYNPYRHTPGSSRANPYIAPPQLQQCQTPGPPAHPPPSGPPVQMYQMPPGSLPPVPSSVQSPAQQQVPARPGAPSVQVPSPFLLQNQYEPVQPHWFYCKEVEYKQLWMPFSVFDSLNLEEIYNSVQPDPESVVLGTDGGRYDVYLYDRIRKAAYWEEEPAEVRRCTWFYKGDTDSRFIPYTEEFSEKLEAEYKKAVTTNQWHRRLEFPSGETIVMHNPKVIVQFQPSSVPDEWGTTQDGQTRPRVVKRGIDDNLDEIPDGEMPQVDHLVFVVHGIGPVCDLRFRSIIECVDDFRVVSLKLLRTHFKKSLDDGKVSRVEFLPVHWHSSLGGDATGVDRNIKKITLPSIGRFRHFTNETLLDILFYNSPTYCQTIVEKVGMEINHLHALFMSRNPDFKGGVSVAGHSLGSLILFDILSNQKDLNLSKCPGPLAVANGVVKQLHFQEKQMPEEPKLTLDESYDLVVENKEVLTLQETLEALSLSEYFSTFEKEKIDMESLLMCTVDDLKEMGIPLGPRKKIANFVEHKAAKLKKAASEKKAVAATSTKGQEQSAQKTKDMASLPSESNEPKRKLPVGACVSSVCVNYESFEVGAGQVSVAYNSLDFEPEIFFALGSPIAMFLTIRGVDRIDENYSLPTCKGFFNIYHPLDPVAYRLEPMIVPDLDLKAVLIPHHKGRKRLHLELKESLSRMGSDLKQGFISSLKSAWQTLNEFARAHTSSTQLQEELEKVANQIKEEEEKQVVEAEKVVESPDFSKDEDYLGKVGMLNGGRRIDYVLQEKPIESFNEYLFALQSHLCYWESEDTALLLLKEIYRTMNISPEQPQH
UniProt Q9Y5J9: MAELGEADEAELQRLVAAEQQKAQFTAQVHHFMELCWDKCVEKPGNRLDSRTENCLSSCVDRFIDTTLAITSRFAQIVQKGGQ
UniProt Q9Y5K6, whole entry: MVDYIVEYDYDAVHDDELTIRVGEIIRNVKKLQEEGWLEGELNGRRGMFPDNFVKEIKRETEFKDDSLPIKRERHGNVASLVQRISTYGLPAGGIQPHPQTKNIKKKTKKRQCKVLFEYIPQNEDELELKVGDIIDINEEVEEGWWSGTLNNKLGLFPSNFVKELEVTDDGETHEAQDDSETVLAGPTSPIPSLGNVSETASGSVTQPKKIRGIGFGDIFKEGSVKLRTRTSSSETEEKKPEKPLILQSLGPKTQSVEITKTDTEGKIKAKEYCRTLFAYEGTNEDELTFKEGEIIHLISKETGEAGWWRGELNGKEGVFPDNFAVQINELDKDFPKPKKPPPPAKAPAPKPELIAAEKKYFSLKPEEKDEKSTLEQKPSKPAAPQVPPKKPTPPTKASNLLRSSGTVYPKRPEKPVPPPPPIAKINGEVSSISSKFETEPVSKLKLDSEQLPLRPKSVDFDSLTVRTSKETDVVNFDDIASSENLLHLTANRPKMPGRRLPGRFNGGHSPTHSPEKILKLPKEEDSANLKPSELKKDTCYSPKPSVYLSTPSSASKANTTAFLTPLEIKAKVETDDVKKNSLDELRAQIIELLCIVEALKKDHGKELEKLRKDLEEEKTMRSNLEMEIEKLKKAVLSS
UniProt Q9Y421: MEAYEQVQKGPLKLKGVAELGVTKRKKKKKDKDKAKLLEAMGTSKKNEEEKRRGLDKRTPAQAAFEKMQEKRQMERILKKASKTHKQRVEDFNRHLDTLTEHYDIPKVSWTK
UniProt Q9Y4H2: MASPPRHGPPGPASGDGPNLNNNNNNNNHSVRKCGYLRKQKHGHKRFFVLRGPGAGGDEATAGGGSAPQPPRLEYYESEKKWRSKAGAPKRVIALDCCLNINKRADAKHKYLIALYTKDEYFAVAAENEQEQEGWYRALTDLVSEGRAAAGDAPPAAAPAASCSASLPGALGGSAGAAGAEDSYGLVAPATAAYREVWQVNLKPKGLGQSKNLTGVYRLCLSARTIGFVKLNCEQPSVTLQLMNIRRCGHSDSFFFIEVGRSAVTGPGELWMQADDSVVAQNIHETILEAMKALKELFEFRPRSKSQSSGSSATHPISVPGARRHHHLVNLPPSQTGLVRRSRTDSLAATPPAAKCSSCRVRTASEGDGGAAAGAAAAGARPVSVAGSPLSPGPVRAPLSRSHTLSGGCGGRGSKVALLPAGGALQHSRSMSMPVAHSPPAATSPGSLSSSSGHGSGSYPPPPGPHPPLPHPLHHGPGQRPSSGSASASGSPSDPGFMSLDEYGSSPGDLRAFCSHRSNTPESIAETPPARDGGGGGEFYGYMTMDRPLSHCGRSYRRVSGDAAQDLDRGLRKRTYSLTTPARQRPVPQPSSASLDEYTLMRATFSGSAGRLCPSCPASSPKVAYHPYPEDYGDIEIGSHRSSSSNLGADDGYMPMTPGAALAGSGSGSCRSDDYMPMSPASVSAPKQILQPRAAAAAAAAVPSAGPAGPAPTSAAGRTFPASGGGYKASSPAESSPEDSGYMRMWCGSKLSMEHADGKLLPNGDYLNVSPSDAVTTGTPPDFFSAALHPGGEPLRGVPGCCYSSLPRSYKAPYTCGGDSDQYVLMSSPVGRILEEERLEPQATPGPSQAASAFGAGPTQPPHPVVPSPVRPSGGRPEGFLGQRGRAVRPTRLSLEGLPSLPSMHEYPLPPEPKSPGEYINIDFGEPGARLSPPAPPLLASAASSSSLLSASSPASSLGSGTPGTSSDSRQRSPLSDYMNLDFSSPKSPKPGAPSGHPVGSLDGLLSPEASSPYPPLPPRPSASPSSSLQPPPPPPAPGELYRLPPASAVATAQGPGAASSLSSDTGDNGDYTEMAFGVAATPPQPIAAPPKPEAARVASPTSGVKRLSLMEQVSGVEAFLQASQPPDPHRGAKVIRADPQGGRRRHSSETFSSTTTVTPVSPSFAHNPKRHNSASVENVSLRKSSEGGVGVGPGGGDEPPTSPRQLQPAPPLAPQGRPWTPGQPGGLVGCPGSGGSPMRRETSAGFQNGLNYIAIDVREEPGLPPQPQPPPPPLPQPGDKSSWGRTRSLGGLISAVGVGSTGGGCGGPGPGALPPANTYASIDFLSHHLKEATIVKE
UniProt Q9Y5N6: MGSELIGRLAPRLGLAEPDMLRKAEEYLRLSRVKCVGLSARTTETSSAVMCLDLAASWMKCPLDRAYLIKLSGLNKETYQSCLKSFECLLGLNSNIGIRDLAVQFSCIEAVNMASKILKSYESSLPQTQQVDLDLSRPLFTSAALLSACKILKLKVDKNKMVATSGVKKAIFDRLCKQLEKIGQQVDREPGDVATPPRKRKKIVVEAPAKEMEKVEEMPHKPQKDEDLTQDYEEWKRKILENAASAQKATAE
UniProt Q9Y597: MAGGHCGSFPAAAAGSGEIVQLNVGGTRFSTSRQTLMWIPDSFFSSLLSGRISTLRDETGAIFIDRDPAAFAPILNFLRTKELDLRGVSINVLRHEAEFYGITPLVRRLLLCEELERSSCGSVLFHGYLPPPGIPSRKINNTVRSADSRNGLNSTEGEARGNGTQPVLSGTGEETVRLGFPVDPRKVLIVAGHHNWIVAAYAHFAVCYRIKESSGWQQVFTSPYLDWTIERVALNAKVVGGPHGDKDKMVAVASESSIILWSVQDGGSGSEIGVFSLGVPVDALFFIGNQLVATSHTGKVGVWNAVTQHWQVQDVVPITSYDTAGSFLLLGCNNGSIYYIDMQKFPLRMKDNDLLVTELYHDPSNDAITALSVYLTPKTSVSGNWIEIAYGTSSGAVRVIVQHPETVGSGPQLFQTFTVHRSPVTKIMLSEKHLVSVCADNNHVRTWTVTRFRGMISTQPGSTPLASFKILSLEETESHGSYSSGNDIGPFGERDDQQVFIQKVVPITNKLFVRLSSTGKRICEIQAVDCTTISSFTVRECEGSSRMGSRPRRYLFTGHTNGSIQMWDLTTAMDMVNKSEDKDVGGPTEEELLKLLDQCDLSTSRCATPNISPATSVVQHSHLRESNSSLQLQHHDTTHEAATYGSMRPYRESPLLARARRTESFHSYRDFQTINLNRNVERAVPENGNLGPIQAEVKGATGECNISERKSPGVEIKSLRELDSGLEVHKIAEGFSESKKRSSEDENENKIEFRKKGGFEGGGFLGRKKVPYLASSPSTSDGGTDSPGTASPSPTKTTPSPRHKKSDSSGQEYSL
UniProt Q9Y4A0: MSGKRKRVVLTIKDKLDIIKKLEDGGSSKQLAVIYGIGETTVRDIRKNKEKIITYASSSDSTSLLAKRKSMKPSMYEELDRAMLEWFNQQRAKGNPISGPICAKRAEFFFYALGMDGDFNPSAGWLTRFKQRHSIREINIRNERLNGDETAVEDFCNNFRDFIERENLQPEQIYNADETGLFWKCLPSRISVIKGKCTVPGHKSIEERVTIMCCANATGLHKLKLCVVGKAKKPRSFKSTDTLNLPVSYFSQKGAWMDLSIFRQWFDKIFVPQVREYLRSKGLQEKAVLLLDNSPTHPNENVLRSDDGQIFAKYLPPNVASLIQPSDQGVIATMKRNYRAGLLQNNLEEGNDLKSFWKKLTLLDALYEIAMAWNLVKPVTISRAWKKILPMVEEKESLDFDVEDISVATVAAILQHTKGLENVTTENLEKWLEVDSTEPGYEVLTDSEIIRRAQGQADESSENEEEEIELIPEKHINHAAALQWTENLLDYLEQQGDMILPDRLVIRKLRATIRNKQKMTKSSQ
UniProt Q9Y3Q8: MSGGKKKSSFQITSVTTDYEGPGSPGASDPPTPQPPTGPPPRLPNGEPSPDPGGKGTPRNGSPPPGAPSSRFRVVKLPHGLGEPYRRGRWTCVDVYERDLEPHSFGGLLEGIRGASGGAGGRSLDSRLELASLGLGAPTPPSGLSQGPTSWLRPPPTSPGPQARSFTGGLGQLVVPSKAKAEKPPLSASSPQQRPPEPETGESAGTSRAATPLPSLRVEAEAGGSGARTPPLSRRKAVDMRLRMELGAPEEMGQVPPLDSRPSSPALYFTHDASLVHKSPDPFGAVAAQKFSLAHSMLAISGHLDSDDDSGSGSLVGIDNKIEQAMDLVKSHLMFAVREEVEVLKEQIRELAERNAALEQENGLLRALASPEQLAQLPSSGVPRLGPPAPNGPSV
UniProt Q9Y4L5, whole entry: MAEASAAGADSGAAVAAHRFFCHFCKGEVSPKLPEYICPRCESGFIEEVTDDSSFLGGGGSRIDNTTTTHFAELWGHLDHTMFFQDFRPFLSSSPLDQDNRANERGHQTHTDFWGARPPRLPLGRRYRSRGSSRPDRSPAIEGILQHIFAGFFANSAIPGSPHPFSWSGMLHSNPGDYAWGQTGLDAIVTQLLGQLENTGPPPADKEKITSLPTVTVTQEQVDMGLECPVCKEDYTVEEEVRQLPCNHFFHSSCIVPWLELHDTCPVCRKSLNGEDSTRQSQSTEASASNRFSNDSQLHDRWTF
UniProt Q9Y5L0: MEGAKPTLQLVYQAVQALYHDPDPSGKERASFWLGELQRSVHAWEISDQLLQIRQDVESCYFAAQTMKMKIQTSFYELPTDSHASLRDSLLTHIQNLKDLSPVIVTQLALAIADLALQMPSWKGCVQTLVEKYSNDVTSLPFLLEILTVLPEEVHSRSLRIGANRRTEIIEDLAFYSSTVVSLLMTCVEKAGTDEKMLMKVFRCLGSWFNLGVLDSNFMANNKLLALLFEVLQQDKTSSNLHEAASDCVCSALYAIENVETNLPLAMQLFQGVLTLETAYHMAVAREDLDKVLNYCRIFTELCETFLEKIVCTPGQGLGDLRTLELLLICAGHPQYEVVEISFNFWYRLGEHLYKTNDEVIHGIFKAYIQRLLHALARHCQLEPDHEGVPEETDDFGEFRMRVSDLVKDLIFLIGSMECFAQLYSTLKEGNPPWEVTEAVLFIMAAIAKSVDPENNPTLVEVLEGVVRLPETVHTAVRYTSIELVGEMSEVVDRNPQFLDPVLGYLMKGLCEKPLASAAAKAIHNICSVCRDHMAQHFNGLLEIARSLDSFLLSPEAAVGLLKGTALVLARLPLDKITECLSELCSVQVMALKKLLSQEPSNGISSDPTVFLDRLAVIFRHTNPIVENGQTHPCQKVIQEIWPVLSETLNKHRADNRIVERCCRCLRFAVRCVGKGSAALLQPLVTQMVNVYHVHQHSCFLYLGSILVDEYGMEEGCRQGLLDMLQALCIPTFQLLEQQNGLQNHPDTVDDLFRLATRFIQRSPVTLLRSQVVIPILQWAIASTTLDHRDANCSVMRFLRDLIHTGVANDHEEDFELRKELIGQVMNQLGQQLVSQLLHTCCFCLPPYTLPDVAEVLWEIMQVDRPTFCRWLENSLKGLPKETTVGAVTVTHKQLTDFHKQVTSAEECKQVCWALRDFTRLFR
UniProt Q9Y3C1: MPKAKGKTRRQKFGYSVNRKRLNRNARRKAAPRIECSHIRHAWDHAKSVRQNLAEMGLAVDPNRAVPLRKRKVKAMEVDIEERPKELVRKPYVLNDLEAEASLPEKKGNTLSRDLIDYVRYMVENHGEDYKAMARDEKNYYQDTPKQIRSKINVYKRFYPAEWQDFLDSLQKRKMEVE

Some of the results follow. Small differences around the control level are noise.

Compound in this assay: CN[C@@H]1C[C@H]2O[C@@](C)([C@@H]1OC)n1c3ccccc3c3c4c(c5c6ccccc6n2c5c31)C(=O)NC4 [staurosporine]
Description: log2 fold change of tryptic peptide abundance, ligand vs vehicle (limited proteolysis) (log2 ratio); higher = more trypsin-susceptible (destabilized). As to conditions: ligand concentration: 20 uM; sample: K562 cleared lysate; digestion: 4 min, 22 C (HT-PELSA RT4min, Orbitrap Astral).
“GTF3C5 (peptide sequence: DGWCLPK, peptide start residue: 436) (UniProt Q9Y5Q8)”: the log2 fold change was -0.412. Turning to “TACC3 (peptide sequence: KQSLYLKFDPLLR, peptide start residue: 556) (UniProt Q9Y6A5)”, the log2 fold change is -0.63. On to “SEC23IP (peptide sequence: TKDMASLPSESNEPK, peptide start residue: 732) (UniProt Q9Y6Y8)”, for which the log2 fold change was -0.267.

Turning to “TIMM8B (peptide sequence: FIDTTLAITSR, peptide start residue: 63) (UniProt Q9Y5J9)”, the log2 fold change is -0.149. In the case of “UniProt Q9Y462 (peptide sequence: VDKTHEFTEYTR, peptide start residue: 442)” it was -0.867; in that of “UniProt Q9Y678 (peptide sequence: VVVVQAISALCQKYPR, peptide start residue: 377)”, 0.35. For “ASB3 (peptide sequence: ILDLLIPLTNR, peptide start residue: 262) (UniProt Q9Y575)” the value was -0.276; for “AUP1 (peptide sequence: LTPADKAEHMK, peptide start residue: 259) (UniProt Q9Y679)”, 0.351. On to “SAMHD1 (peptide sequence: REDYESLPK, peptide start residue: 470) (UniProt Q9Y3Z3)”, for which the log2 fold change was 0.39. In the case of “CEP170B (peptide sequence: EPSYFEIPTK, peptide start residue: 237) (UniProt Q9Y4F5)” it was 0.156. For “CD2AP (peptide sequence: ANTTAFLTPLEIK, peptide start residue: 558) (UniProt Q9Y5K6)”, the log2 fold change was -0.48. On to “IGF2BP2 (peptide sequence: MVIITGPPEAQFK, peptide start residue: 453) (UniProt Q9Y6M1)”, for which the log2 fold change is -0.161. For the target “FAM32A (peptide sequence: HLDTLTEHYDIPK, peptide start residue: 95) (UniProt Q9Y421)”, the log2 fold change was -0.555. Turning to “UniProt Q9Y6X3 (peptide sequence: HQEVLYSLLER, peptide start residue: 433)”, the log2 fold change was -0.115.

“MAGED1 (peptide sequence: IPFTFWAR, peptide start residue: 730) (UniProt Q9Y5V3)”: the log2 fold change is -0.183. As to “SNX5 (peptide sequence: LGEGEGSMTKEEFAK, peptide start residue: 109) (UniProt Q9Y5X3)”, the log2 fold change is -0.137. For “NFS1 (peptide sequence: VEALQSGGGQER, peptide start residue: 278) (UniProt Q9Y697)” the value was -0.313; for “IRS2 (peptide sequence: RVSGDAAQDLDR, peptide start residue: 558) (UniProt Q9Y4H2)”, -0.978; for “ZNF451 (peptide sequence: GHSDTEAARLCVDQWLK, peptide start residue: 123) (UniProt Q9Y4E5)”, -0.565. Consider “ORC6 (peptide sequence: IGQQVDREPGDVATPPR, peptide start residue: 182) (UniProt Q9Y5N6)”, for which the log2 fold change was 0.223. In the case of “KCTD3 (peptide sequence: NGLNSTEGEAR, peptide start residue: 150) (UniProt Q9Y597)” it was -0.127. For the target “RAD54L2 (peptide sequence: GKGEDSTLASSMGEATNSK, peptide start residue: 664) (UniProt Q9Y4B4)”, the log2 fold change is 0.489.

“UniProt Q9Y4A0 (peptide sequence: AVLLLDNSPTHPNENVLR, peptide start residue: 287)”: the log2 fold change was -0.0159. In the case of “TSC22D4 (peptide sequence: PSSPALYFTHDASLVHK, peptide start residue: 262) (UniProt Q9Y3Q8)” it was -0.424; in that of “RNF115 (peptide sequence: FSNDSQLHDRWTF, peptide start residue: 292) (UniProt Q9Y4L5)”, -0.317; in that of “TNPO3 (peptide sequence: HTNPIVENGQTHPCQK, peptide start residue: 621) (UniProt Q9Y5L0)”, 0.26. Take “NOP16 (peptide sequence: YMVENHGEDYK, peptide start residue: 121) (UniProt Q9Y3C1)”: the log2 fold change is -0.26. Consider “SCIN (peptide sequence: QIPFDASK, peptide start residue: 370) (UniProt Q9Y6U3)”, for which the log2 fold change was 0.0458.
